From publication PMC9304322, “Targeting retinoic acid receptor alpha-corepressor interaction activates chaperone-mediated autophagy and protects against retinal degeneration” (Nature Communications, 2022)
Results are given in words; binding and its absence hold for the method and conditions named. Binding seen in cells or lysates may run through a third protein. Some entries that bind do so weakly or less than the wild type.

Chains of the proteins cited; added tags and fusions are not shown.
UniProt Q60974: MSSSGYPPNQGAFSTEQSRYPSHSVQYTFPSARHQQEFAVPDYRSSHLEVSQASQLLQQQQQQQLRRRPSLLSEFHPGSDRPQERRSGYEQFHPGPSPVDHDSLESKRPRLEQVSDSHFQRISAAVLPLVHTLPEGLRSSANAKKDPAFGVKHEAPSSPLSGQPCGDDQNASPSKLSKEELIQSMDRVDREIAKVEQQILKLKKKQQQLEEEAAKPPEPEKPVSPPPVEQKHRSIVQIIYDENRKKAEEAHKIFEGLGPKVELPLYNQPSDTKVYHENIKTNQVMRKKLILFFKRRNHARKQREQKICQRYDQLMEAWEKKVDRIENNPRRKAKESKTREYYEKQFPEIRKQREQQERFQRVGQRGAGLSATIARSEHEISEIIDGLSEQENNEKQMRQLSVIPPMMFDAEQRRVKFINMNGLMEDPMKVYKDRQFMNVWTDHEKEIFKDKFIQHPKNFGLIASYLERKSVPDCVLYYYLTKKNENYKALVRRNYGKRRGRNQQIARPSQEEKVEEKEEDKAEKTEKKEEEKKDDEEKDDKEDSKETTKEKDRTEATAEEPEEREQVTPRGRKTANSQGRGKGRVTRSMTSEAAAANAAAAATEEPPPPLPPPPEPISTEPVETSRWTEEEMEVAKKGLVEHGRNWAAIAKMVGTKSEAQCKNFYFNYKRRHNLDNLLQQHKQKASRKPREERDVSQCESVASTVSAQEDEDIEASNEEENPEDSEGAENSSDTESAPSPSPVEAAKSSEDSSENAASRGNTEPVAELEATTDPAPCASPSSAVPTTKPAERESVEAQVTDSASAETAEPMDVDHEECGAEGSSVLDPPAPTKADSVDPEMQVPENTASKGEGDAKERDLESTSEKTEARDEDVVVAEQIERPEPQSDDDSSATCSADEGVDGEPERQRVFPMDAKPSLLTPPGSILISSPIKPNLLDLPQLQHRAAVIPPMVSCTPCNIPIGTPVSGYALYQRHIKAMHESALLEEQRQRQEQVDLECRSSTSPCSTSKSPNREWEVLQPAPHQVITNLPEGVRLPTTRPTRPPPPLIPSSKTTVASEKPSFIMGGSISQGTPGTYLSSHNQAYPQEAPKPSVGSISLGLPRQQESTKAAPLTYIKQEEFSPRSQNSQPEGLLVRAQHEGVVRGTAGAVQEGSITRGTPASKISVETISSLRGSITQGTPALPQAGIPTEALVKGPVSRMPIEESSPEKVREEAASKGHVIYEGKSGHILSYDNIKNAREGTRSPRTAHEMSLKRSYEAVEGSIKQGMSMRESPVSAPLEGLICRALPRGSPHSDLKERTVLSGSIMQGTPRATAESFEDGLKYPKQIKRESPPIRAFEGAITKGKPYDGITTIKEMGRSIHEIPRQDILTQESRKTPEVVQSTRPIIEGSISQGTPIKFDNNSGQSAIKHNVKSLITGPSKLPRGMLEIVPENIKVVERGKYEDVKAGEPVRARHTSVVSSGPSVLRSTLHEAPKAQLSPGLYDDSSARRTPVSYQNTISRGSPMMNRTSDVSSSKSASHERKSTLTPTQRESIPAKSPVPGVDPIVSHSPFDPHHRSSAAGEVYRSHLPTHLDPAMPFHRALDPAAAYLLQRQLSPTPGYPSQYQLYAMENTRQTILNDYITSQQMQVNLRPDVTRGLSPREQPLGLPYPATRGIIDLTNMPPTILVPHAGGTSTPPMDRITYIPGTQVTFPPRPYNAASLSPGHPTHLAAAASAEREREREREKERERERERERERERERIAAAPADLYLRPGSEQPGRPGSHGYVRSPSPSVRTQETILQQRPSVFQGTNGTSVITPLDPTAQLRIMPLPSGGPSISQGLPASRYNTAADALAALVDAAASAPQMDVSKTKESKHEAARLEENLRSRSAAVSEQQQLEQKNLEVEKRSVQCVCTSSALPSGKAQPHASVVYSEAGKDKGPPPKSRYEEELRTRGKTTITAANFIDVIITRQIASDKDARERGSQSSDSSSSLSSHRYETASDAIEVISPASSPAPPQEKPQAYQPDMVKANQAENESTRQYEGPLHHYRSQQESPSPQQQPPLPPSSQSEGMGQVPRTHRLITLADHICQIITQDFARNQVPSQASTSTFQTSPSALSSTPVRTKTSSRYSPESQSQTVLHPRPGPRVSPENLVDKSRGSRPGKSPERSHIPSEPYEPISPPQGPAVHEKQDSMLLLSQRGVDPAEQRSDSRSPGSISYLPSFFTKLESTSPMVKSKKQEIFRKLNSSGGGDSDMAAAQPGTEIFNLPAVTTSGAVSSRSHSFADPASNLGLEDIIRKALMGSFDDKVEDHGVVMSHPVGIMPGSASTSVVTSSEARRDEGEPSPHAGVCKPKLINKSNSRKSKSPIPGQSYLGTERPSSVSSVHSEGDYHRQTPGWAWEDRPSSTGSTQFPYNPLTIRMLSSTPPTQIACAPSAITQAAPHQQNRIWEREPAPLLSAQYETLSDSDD

Molecular target: T1, cellular RARα (NIH3T3) (mouse (endogenous in NIH3T3)) (UniProt P11416)
T1 sequence: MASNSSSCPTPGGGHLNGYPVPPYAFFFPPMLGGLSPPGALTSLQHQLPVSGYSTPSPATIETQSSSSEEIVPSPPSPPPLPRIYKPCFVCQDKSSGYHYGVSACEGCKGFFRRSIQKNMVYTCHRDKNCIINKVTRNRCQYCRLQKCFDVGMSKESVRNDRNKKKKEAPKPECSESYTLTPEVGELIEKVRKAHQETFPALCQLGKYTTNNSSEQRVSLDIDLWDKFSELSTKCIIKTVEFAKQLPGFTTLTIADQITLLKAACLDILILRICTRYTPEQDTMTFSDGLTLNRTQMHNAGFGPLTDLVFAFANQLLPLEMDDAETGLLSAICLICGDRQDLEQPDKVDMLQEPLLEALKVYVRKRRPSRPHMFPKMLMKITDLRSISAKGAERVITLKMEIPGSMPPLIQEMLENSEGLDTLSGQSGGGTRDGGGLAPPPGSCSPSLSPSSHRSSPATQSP
Test: pull-down; streptavidin pulldown from NIH3T3 cells incubated with biotin-CA (10 uM) for 24 h (controls: no addition, CA39 10 uM); immunoblot for N-CoR1 and RARα

binding: binds
Substance: cellular N-CoR1 (NIH3T3) (from UniProt Q60974 1-2453)
